The test deals with FLAG-tagged human LRRK2 (wild type) (human) (UniProt Q5S007). As to the kind of experiment: affinity purification with mass spectrometry; Flp-In 293 cells stably expressing FLAG-LRRK2; lysis buffer 50 mM Tris pH 7.4, 120 mM NaCl, 5 mM EDTA, 10% glycerol, 1% Triton X-100; anti-FLAG M2 affinity gel, eluted with 3x FLAG peptide; silver-stained bands identified by HPLC-MS/MS.

Chains of the proteins cited; added tags and fusions are not shown.
UniProt Q5S007: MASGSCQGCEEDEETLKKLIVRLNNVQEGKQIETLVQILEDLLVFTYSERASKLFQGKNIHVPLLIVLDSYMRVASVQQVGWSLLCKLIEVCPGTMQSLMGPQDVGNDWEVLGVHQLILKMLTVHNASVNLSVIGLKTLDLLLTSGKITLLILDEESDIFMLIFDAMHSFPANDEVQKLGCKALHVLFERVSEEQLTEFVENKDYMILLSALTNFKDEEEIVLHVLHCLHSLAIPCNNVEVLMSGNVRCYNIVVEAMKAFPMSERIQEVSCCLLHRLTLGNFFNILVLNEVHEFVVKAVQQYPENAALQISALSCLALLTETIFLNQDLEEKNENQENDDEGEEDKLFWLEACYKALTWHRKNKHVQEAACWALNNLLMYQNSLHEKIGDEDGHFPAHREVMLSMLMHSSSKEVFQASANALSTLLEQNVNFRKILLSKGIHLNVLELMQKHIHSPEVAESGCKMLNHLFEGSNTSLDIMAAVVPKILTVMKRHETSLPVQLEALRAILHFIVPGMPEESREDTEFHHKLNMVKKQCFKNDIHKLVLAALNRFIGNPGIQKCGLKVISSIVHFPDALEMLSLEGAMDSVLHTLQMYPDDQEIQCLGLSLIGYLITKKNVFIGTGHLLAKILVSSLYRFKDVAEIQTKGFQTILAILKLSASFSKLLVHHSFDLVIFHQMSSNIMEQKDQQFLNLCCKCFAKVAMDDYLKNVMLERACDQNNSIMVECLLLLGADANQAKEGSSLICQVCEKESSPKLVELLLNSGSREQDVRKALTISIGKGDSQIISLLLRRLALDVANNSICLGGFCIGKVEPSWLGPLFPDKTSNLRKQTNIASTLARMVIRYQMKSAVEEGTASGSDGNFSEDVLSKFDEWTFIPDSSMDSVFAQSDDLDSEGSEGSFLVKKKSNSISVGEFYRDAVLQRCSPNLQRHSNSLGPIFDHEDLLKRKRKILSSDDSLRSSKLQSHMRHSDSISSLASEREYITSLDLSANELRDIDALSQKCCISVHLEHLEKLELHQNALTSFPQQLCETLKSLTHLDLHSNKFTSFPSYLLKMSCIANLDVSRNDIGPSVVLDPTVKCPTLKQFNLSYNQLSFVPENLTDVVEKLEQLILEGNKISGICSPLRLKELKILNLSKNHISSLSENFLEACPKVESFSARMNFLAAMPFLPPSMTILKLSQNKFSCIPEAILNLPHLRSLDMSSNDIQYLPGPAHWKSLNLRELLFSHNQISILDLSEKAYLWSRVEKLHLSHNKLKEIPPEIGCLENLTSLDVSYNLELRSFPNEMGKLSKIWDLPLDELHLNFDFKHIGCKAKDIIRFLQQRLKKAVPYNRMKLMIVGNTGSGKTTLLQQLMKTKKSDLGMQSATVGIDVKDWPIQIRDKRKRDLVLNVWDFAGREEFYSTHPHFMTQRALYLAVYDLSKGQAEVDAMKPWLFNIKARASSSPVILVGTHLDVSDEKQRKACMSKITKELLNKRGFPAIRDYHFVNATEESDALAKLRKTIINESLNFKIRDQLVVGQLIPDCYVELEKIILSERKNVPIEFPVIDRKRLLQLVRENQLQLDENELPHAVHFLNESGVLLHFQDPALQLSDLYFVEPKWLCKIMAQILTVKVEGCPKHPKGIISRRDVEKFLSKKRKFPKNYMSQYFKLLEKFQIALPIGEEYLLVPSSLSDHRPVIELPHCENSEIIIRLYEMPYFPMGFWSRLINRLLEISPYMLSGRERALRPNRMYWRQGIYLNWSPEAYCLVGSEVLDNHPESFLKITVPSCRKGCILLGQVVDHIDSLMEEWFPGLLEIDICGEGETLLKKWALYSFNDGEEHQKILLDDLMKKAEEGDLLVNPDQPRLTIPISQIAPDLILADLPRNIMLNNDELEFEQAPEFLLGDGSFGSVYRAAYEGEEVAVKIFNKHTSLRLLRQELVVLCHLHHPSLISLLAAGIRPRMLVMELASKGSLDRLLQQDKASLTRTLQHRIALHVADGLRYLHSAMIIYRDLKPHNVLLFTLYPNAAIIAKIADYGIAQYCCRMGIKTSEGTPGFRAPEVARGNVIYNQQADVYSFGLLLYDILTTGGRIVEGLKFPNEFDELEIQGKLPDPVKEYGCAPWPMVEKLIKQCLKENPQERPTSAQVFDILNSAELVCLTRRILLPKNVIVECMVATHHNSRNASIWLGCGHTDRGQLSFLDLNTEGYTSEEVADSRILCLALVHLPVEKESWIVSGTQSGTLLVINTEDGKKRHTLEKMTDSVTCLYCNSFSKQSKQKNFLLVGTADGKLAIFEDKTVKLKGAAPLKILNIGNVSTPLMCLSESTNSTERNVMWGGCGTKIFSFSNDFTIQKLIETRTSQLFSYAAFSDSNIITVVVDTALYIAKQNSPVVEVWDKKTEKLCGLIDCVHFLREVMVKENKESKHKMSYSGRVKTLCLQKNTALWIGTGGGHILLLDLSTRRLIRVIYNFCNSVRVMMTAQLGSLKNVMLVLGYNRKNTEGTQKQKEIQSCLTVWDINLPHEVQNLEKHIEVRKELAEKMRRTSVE
UniProt Q96JN8: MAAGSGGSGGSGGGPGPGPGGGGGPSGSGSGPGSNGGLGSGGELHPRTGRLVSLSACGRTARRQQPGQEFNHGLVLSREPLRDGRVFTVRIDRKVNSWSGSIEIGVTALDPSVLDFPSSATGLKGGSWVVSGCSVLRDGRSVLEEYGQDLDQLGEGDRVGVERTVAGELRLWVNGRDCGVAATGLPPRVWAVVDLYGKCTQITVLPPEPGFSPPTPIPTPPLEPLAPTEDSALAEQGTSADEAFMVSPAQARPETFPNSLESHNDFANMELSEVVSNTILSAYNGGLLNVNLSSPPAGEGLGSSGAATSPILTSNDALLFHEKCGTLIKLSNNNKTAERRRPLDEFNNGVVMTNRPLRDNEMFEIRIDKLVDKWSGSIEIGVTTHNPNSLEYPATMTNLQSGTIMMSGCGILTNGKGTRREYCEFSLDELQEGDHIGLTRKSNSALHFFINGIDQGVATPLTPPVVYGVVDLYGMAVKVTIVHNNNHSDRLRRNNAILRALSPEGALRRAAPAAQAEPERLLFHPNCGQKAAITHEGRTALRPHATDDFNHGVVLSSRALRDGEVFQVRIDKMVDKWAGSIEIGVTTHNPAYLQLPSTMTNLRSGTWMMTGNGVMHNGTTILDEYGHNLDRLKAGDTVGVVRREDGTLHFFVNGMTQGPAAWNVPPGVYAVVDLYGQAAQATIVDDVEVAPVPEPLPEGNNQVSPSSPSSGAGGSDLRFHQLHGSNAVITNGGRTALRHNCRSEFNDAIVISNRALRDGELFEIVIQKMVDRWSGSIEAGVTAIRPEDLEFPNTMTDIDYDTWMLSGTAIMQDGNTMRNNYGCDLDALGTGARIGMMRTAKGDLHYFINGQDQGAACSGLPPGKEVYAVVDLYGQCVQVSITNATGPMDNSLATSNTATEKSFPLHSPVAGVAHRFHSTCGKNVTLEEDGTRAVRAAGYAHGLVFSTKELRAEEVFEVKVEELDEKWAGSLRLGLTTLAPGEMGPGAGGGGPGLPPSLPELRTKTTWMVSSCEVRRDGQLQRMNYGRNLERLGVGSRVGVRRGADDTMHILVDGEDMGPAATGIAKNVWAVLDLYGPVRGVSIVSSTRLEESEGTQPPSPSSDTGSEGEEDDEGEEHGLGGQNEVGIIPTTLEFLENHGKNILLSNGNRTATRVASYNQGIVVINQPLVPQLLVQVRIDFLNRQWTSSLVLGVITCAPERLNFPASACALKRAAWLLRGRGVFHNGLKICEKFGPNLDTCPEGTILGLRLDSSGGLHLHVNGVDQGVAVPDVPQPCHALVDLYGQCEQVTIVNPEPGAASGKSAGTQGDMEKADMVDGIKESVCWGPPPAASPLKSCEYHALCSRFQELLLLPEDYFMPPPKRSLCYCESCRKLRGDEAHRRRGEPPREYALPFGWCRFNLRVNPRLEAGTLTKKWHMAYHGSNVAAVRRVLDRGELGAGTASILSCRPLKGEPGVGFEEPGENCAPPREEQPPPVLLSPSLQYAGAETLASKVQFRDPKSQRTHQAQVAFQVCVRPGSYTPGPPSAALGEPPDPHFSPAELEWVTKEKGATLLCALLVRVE

No constants are given. Whether binding was seen depends on the method and setting. In cells and extracts the contact can be indirect. A yes stands for co-enrichment or nearness to the bait. Other partners may have been found.

As to “NEURL4 (endogenous, HEK293 cells) (from UniProt Q96JN8 1-1562)”, the binding result was “binds”.

For the origin of these results see publication PMC4565672.
